Patent publication US8871937B2, “8-hydroxy-quinoline derivatives” (“AVIDIN” Kutato, Fejleszto es Kereskedelmi Korlatolt …, priority 2010, dated 2014)
For at least one compound, name, drawing or mass did not settle the structure.

System: Wistar rats
Assay: Elevated plus-maze test
Type: in vivo, rat
Details: 8 mg/kg, earlier experiments

SMILES: CNC1=Nc2ccc(Cl)cc2C(c2ccccc2)=[N+]([O-])C1 [chlordiazepoxide]
- anxiety in elevated plus-maze test: reliably reduced anxiety
